Publication PMC8351955, “Targeting Mycobacterium tuberculosis response to environmental cues for the development of effective antitubercular drugs” (PLoS Biology, 2021)
“And” between values parts separate entries of the source, which are not always exact repeats. Equal values may be shown once. Further values from the same series stand in other lists.

What was measured:
[1] = test system: macrophage phagosomal [Cl−] in BMDMs; test: Phagosomal maturation assay, BAC/AF594 beads (Cl− readout); type: cell-based, mouse
Procedure: (§1) Carboxyfluorescein (pH readout), DQ-BSA/Alexa Fluor 594 (AF594) (proteolysis readout), and BAC/AF594 (Cl^− readout) beads were generated essentially as previously described, except that 10,10′-Bis[3-carboxylpropyl]-9,9′-biacridinium dinitrate di-NHS ester (BAC-SE) was purchased from emp Biotech LLC. BMDMs were isolated from C57BL/6J mice (The Jackson Laboratory) and maintained as described above. […] Assay buffer consisted of PBS (pH 7.2), supplemented with 5% FBS, 5 mM dextrose, 1 mM CaCl2, 2.7 mM KCl, and 0.5 mM MgCl2 in the case of assays with the carboxyfluorescein or DQ-BSA/AF594 beads. For assays with the BAC/AF594 beads, assay buffer consisted of PBS (pH 7.2), supplemented with 5% FBS, 5 mM dextrose, 1 mM calcium acetate, 1.35 mM K2SO4, and 0.5 mM MgSO4 [9]. Sensor beads at approximately 2 to 5 beads/macrophage in appropriate assay buffer were finally added, with data acquisition on a Biotek Synergy H1 microplate reader with bottom read signal detection started within 2 to 3 minutes of bead addition. Excitation/emission wavelengths were 450 nm/520 nm and 490 nm/520 nm for carboxyfluorescein, 490 nm/520 nm for DQ-BSA, 365 nm/505 nm for BAC, and 590 nm/617 nm for AF594. Each experiment was run with a total of 3 to 5 replicate wells/condition, with temperature maintained at 37°C throughout the assay. Wells were read every 2 minutes for 2 hours for the carboxyfluorescein bead assays, every 2 minoutes for 4 hours for the DQ-BSA/AF594 bead assays, and every 1 minute for 2 hours for the BAC/AF594 bead assays. Analyses of the results were performed as previously described.

[2] = test system: macrophage phagosomal acidification in BMDMs; test: Phagosomal maturation assay, carboxyfluorescein beads (pH readout); type: cell-based, mouse
Procedure: as §1, with “above. A quantity of 2 × 10^5 macrophages/well were seeded into 96-well clear bottom black plates and utilized in assays 1 to 2 days post-seeding.” for “above.”

## CCSc1ncc(CN2CCN(c3nc4ccccc4o3)CC2)cn1 [C6, 2-(4-((2-(ethylthio)pyrimidin-5-yl)methyl)piperazin-1-yl)benzo[d]oxazole]
[1]; time 60 minutes
  AF594/BAC fluorescence, replicates: 0.6395 and 0.6365 and 0.6537 and 0.6304 and 0.6457
[1]; time 62 minutes
  AF594/BAC fluorescence, replicates: 0.6336 and 0.6342 and 0.6557 and 0.6408 and 0.6478
[1]; time 64 minutes
  AF594/BAC fluorescence, replicates: 0.6573 and 0.6448 and 0.6683 and 0.6109 and 0.6674
[1]; time 66 minutes
  AF594/BAC fluorescence, replicates: 0.6324 and 0.6485 and 0.6665 and 0.615 and 0.6452
[2]; time 0 minutes
  490 nm/450 nm, single replicates (Rep 1-5): 4.897 and 4.891 and 4.958 and 4.914 and 4.628
[2]; time 2 minutes
  490 nm/450 nm, single replicates (Rep 1-5): 4.9719 and 4.922 and 4.857 and 4.823 and 5.0783
[2]; time 4 minutes
  490 nm/450 nm, single replicates (Rep 1-5): 4.797 and 4.947 and 4.836 and 4.834 and 4.999
[2]; time 46 minutes
  490 nm/450 nm, single replicates (Rep 1-5): 2.295 and 2.319 and 2.388 and 2.35 and 2.405
[2]; time 48 minutes
  490 nm/450 nm, single replicates (Rep 1-5): 2.309 and 2.305 and 2.374 and 2.321 and 2.44
[2]; time 50 minutes
  490 nm/450 nm, single replicates (Rep 1-5): 2.321 and 2.319 and 2.384 and 2.339 and 2.391
[2]; time 52 minutes
  490 nm/450 nm, single replicates (Rep 1-5): 2.311 and 2.303 and 2.369 and 2.33 and 2.398
[2]; time 54 minutes
  490 nm/450 nm, single replicates (Rep 1-5): 2.297 and 2.314 and 2.361 and 2.345 and 2.395
[2]; time 56 minutes
  490 nm/450 nm, single replicates (Rep 1-5): 2.299 and 2.311 and 2.334 and 2.316 and 2.409
[2]; time 58 minutes
  490 nm/450 nm, single replicates (Rep 1-5): 2.303 and 2.295 and 2.364 and 2.337 and 2.384
[2]; time 60 minutes
  490 nm/450 nm, single replicates (Rep 1-5): 2.31 and 2.297 and 2.374 and 2.3199 and 2.396
[2]; time 62 minutes
  490 nm/450 nm, single replicates (Rep 1-5): 2.331 and 2.323 and 2.349 and 2.351 and 2.416
[2]; time 64 minutes
  490 nm/450 nm, single replicates (Rep 1-5): 2.302 and 2.332 and 2.372 and 2.3306 and 2.408
[2]; time 66 minutes
  490 nm/450 nm, single replicates (Rep 1-5): 2.329 and 2.307 and 2.358 and 2.353 and 2.408
[2]; time 68 minutes
  490 nm/450 nm, single replicates (Rep 1-5): 2.333 and 2.305 and 2.3735 and 2.335 and 2.442
[2]; time 70 minutes
  490 nm/450 nm, single replicates (Rep 1-5): 2.349 and 2.33 and 2.382 and 2.354 and 2.393
[2]; time 72 minutes
  490 nm/450 nm, single replicates (Rep 1-5): 2.3579 and 2.318 and 2.353 and 2.37 and 2.417
[2]; time 74 minutes
  490 nm/450 nm, single replicates (Rep 1-5): 2.3657 and 2.326 and 2.384 and 2.368 and 2.447
[2]; time 76 minutes
  490 nm/450 nm, single replicates (Rep 1-5): 2.366 and 2.348 and 2.382 and 2.353 and 2.457
[2]; time 78 minutes
  490 nm/450 nm, single replicates (Rep 1-5): 2.367 and 2.348 and 2.394 and 2.364 and 2.425
[2]; time 80 minutes
  490 nm/450 nm, single replicates (Rep 1-5): 2.379 and 2.348 and 2.401 and 2.392 and 2.4408
[2]; time 82 minutes
  490 nm/450 nm, single replicates (Rep 1-5): 2.374 and 2.35 and 2.375 and 2.377 and 2.458
[2]; time 84 minutes
  490 nm/450 nm, single replicates (Rep 1-5): 2.361 and 2.339 and 2.3956 and 2.383 and 2.468
[2]; time 86 minutes
  490 nm/450 nm, single replicates (Rep 1-5): 2.38 and 2.374 and 2.385 and 2.397 and 2.461
[2]; time 88 minutes
  490 nm/450 nm, single replicates (Rep 1-5): 2.401 and 2.377 and 2.389 and 2.416 and 2.489
[2]; time 90 minutes
  490 nm/450 nm, single replicates (Rep 1-5): 2.409 and 2.352 and 2.404 and 2.422 and 2.468
[2]; time 92 minutes
  490 nm/450 nm, single replicates (Rep 1-5): 2.417 and 2.382 and 2.459 and 2.421 and 2.458
[2]; time 94 minutes
  490 nm/450 nm, single replicates (Rep 1-5): 2.404 and 2.373 and 2.435 and 2.426 and 2.49
[2]; time 96 minutes
  490 nm/450 nm, single replicates (Rep 1-5): 2.43 and 2.399 and 2.447 and 2.421 and 2.431
[2]; time 98 minutes
  490 nm/450 nm, single replicates (Rep 1-5): 2.426 and 2.385 and 2.454 and 2.425 and 2.499
[2]; time 100 minutes
  490 nm/450 nm, single replicates (Rep 1-5): 2.449 and 2.407 and 2.439 and 2.433 and 2.509
[2]; time 102 minutes
  490 nm/450 nm, single replicates (Rep 1-5): 2.455 and 2.435 and 2.463 and 2.434 and 2.473
[2]; time 104 minutes
  490 nm/450 nm, single replicates (Rep 1-5): 2.4482 and 2.403 and 2.464 and 2.4607 and 2.488
[2]; time 106 minutes
  490 nm/450 nm, single replicates (Rep 1-5): 2.461 and 2.426 and 2.464 and 2.443 and 2.511
[2]; time 108 minutes
  490 nm/450 nm, single replicates (Rep 1-5): 2.458 (2×) and 2.408 and 2.476 and 2.543
[2]; time 110 minutes
  490 nm/450 nm, single replicates (Rep 1-5): 2.479 and 2.411 and 2.4971 and 2.462 and 2.502
[2]; time 112 minutes
  490 nm/450 nm, single replicates (Rep 1-5): 2.469 and 2.454 and 2.475 and 2.482 and 2.516
[2]; time 114 minutes
  490 nm/450 nm, single replicates (Rep 1-5): 2.483 and 2.432 and 2.485 and 2.489 and 2.486
[2]; time 116 minutes
  490 nm/450 nm, single replicates (Rep 1-5): 2.488 and 2.437 and 2.494 and 2.4673 and 2.538
[2]; time 118 minutes
  490 nm/450 nm, single replicates (Rep 1-5): 2.491 and 2.45 and 2.494 and 2.488 and 2.5451
[2]; time 120 minutes
  490 nm/450 nm, single replicates (Rep 1-5): 2.484 and 2.473 and 2.505 and 2.465 and 2.5316
